Residue numbers refer to the chain shown, from its start. These are yes or no findings as the source states them, for the method shown. Some results given as binding are weak or reduced against the parent protein; the word gives no strength.
B1: anti-c-Kit single domain antibody Clone ID # 408366 (VHH)
VHH: EVQLLESGGGLVQPGGSLRLSCAASGLTISTYAMSWVRQAPGKGLEWVSAISTGGSSTYYADSVKGRFTISRDNSKNTLYLQMNSLRAEDTAVYYCATGYDSSGHYYGGFDYRGQGTLVTVSS
notes: also called F06 family
B2: anti-c-Kit single domain antibody Clone ID # 407921 (VHH)
VHH: B1 VHH with L27F, I29F, S30D, T31S, T53V, G54R, S56G, Y95S, S102P
notes: also called F06 family
B3: anti-c-Kit single domain antibody Clone ID # 408198 (VHH)
VHH: QLQLQESGPGLVKPSETLSLTCTVSGGSISSSSYYWGWIRQPPGKGLEWIGSIDYNGGTYNNPSLKSRVTISVDTSKNQFSLKLSYVTAADTAVYYCARQNPRRYASGASDYRGQGTLVTVSS
notes: also called F18 family

By UniProt entry, the sequences of proteins in these tests, tags left out. Where a name states a change or a piece, a line headed by the entry shows the natural chain unless it says otherwise.
UniProt P10721: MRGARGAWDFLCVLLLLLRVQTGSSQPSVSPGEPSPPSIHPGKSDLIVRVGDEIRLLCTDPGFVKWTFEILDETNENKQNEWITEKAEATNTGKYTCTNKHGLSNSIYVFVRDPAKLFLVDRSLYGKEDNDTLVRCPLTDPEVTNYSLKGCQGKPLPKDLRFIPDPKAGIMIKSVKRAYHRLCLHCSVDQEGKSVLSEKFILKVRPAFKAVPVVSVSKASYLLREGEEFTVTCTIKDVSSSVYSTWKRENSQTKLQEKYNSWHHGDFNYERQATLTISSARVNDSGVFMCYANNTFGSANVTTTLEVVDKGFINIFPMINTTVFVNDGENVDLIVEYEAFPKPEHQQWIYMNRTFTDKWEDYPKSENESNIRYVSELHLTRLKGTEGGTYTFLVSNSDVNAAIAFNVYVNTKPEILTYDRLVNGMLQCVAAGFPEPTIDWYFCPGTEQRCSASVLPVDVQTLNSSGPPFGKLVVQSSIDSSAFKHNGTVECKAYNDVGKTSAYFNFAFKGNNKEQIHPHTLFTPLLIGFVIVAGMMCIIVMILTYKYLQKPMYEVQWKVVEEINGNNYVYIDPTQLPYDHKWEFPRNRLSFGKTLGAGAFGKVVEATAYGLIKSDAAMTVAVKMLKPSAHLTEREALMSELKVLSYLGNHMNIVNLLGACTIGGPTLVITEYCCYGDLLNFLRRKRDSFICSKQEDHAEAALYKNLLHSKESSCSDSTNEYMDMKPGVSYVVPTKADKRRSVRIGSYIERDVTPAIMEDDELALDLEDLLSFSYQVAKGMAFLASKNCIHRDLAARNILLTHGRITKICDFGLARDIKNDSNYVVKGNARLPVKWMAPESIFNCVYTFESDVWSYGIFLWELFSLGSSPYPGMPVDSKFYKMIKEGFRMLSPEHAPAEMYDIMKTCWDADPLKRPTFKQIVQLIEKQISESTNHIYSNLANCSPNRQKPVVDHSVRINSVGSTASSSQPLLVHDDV

target: T1, human c-Kit expressed on NOMO-1 cells (human, UniProt P10721 26-976); experiment: flow cytometry on NOMO-1 cells expressing human c-Kit, PE-conjugated secondary antibody, PE MFI as fold over background
T1 construct: Endogenous c-Kit of the NOMO-1 AML cell line

| Binder | binding |
| --- | --- |
| B1 | binds |
| B2 | binds |
| B3 | binds |
